{"sequences": {"note": "By UniProt entry, the sequences of proteins in these tests, tags left out.", "UniProt P20309": "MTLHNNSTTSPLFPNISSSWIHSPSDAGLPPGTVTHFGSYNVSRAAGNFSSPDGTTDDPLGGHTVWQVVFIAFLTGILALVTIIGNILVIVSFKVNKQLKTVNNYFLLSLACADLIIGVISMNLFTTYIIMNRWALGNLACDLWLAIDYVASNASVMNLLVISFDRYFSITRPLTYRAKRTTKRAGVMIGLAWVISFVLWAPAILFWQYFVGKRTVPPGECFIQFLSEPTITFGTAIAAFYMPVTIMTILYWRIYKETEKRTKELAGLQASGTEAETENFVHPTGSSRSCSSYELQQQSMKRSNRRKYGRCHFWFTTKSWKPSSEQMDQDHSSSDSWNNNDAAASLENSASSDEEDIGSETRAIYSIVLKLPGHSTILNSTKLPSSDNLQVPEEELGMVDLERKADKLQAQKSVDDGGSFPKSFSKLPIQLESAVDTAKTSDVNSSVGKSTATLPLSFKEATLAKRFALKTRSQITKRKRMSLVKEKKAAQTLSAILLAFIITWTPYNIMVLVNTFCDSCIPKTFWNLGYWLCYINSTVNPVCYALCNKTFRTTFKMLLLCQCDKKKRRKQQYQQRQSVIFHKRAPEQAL", "UniProt P46096": "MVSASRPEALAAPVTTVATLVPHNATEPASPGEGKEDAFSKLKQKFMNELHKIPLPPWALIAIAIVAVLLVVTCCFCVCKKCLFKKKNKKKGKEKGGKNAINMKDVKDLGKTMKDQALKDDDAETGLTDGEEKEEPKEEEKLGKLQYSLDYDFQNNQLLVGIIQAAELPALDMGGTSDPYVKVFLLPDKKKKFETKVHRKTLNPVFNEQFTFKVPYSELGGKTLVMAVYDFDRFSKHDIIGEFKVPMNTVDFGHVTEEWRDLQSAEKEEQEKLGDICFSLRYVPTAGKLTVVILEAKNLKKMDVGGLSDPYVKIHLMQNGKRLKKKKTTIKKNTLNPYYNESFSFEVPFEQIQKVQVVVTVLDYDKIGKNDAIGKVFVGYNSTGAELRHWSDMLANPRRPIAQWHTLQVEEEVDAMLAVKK"}, "source": "paper PMC12677133", "key": {"[1]": {"biological_target": "acetylcholine receptor CHRM3 (UniProt P20309)", "experiment": "co-IP; Syt1 co-immunoprecipitated with CHRM3 (Fig. S4C); set-up of this experiment not told in the text shown"}, "[2]": {"biological_target": "T1, Rho-tagged Or1ad1 (mouse) (UniProt Q8VGH1)", "T1 sequence": "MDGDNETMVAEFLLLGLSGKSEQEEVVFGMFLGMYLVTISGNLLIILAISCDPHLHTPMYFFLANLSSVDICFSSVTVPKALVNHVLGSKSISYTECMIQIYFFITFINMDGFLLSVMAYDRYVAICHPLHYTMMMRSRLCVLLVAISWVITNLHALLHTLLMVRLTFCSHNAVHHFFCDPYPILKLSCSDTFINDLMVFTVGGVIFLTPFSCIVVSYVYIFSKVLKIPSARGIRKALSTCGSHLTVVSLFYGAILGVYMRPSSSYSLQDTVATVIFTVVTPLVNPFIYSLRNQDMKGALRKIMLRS", "experiment": "co-IP; Rho-tagged Or1ad1 precipitated with anti-Rho antibody (Rho4D2) and Protein A/G magnetic beads from HEK293T lysate (50 mM Tris-HCl, 150 mM NaCl, 1% NP-40); Rtp1s, Gfy, Clgn and Syt1 cotransfected; washes in 0.5% NP-40 buffer; Western blot with anti-Syt1"}}, "note": "No constants are given. Whether binding was seen depends on the method and setting. Binding seen in cells or lysates may run through a third protein. Some results given as binding are weak or reduced against the parent protein; the word gives no strength. For some assays here: Tags and fused reporters may be left off the sequences shown."}
{"substance": "Synaptotagmin 1 (Syt1) (from UniProt P46096 1-421)", "values": [{"measurement": "binding", "setting": "[1]", "result": "binds"}, {"measurement": "binding", "setting": "[2]", "result": "binds"}]}
